# Experimental data: paper PMC2546444 (PLoS ONE, 2008)
# HELM strings list residues between dots; [ac] is acetyl, [am] amide, other brackets name non-standard units.
# Assay: general procedure: Boc solid-phase peptide synthesis; chloromethylated resin, 0.5–0.8 mequiv/g
# Settings: whole synthesis; for final HPLC purity: 214 nm; for final purity (method not given): CZE 214 nm
Substance,final HPLC purity,final purity (method not given)
"Cyclo(0-1a)[Asp^0, endo-(Lys^1a)]-All",97%,97%
"Cyclo(1a-2a)[endo-(Asp^1a), endo-(Lys^2a)]-All",95%,95%
"Cyclo(2a-3a)[endo-(Asp^2a), endo-(Lys^3a)]-All",95%,95%
PEPTIDE1{D.R.V.Y.I.H.P.F}$$$$V2.0,99%,98%
"[Asp^0, endo-(Lys^1a)]-All",95%,96%
"[endo-(Asp^1a), endo-(Lys^2a)]-All",98%,95%
"[endo-(Asp^2a), endo-(Lys^3a)]-All",97%,96%
